Experimental data reported in PMC7948473.
These are yes or no findings as the source states them, for the method shown. Binding seen in cells or lysates may run through a third protein. Some entries that bind do so weakly or less than the wild type. For part of these data: Where a sequence is shown, tags or fusion partners need not be part of it.

Amino acid sequences for entries named in this document (tags omitted). Residues count along the entry.
UniProt Q8N4A0: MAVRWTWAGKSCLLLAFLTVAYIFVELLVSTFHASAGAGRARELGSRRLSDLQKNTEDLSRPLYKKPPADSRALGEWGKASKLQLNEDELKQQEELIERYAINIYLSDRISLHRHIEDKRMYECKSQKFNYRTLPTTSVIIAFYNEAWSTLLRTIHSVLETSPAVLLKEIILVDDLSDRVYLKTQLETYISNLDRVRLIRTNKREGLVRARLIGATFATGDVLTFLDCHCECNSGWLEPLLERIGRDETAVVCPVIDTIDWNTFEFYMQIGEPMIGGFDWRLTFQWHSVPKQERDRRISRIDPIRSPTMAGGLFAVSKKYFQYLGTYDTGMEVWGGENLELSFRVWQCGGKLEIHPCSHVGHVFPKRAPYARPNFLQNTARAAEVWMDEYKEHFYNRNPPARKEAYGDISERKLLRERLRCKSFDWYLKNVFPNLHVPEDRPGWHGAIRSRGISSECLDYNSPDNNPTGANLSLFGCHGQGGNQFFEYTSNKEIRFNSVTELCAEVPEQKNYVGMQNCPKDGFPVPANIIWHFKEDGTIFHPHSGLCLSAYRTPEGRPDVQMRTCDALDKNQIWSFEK
UniProt P37173, residues 23-567: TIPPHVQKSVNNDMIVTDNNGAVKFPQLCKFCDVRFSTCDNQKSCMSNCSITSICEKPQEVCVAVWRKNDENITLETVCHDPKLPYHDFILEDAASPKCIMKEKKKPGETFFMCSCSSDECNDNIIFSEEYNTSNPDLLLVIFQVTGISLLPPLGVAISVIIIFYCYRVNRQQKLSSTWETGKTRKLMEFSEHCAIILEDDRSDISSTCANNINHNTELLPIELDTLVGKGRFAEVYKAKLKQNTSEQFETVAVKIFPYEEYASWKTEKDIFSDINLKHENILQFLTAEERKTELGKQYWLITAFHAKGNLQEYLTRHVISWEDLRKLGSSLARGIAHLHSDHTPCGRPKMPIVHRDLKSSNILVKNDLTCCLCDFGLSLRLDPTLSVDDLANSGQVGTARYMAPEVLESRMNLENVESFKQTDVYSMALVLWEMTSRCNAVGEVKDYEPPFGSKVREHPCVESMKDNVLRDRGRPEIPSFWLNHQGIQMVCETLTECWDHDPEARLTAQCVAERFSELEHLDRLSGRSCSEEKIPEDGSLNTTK

How the values were obtained:
[1] = target: Flag-T4 (Flag-tagged full-length human ppGalNAc-T4) (human) (UniProt Q8N4A0); assay: co-IP; HEK-293T cells co-transfected with Flag-T4 and HA-TβR Ⅰ or HA-TβR Ⅱ; whole cell lysates precipitated with anti-Flag magnetic beads, blotted with anti-HA
[2] = target: T1, HA-TβR Ⅰ (HA-tagged full-length human TGF-β type Ⅰ receptor), in HEK-293T (human) (UniProt P36897); assay: co-IP; HEK-293T cells co-transfected with Flag-T4 and HA-TβR Ⅰ or HA-TβR Ⅱ; whole cell lysates precipitated with anti-HA magnetic beads, blotted with anti-Flag and anti-ppGalNAc-T4
T1 sequence: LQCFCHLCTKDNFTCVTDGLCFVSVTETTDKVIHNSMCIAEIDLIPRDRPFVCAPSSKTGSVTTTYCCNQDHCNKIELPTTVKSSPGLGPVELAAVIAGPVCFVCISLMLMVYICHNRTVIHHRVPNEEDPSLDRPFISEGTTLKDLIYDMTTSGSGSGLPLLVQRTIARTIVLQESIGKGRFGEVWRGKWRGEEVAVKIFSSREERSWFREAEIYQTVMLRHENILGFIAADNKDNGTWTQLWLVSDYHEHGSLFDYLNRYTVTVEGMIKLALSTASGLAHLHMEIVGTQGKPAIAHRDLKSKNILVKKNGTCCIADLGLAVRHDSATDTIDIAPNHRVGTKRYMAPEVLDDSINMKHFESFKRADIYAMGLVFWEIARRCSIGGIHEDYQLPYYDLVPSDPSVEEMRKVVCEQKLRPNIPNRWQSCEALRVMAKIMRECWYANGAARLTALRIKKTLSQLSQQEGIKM

[3] = target: HA-TβR Ⅱ (HA-tagged full-length human TGF-β type Ⅱ receptor), in HEK-293T (human) (UniProt P37173); assay: as above

binding [1]	binding [2]	binding [3]	Substance
binds			HA-TβR Ⅱ (HA-tagged full-length human TGF-β type Ⅱ receptor), in HEK-293T (from UniProt P37173 23-567)
	binds	binds	Flag-T4 (Flag-tagged full-length human ppGalNAc-T4) (from UniProt Q8N4A0 1-578) (enzyme)
